Experimental data reported in paper PMC10656488.
Construct, isoform or probe ends are uncertain for at least one entry.

Test system: sXBP1 (spliced XBP1)
Test: EMSA
Details: supershifted band reported; fluorescence-based EMSA kit (Molecular Probes), 6% polyacrylamide gel; pH and temperature not given; recombinant protein

GGGGAAGTTGTAATCACGTCCAGTTCCACTATAAGA (double strand) [SEPT2 EMSA WT probe]
binding result: binds
